Data: the supplement of paper PMC6445147
Single values of this data set are uncertain.

B1: human tRNA-Pro; a variant is named by its letters at N, in order (parent)
chain: GGCTCGTTGGTCTAGNGGTATGATTCTCGCTTAGGGTGCGAGAGGTCCCGGGTTCNNATCCCGGACGAGCCC

How the values were obtained:
[1] = variants of: B1; experiment: tRNA Pol-III promoter activity, log2 (circRNA frequency / plasmid DNA frequency) (log2 ratio); higher = stronger promoter activity; conditions: HEK293T; construct: no Pol-II promoter ((-)CMV library)
[2] = variants of: B1; experiment: tRNA 3' processing efficiency (processed reads / all reads, maximum-likelihood estimate) (fraction); higher = more efficient 3' processing; conditions: HEK293T; construct: no Pol-II promoter ((-)CMV library)
[3] = variants of: B1; experiment: tRNA 5' processing efficiency (processed reads / all reads, maximum-likelihood estimate) (fraction); higher = more efficient 5' processing; conditions: HEK293T; construct: CMV Pol-II promoter ((+)CMV library, decapped)

Variant | tRNA Pol-III promoter activity (log2) [1] | tRNA 3' processing efficiency [2] | tRNA 5' processing efficiency [3]
GAA G9T A58T T59G | 3.12 | 0.13 | –
GAA G9T A58T T59A | 2.24 | 0.25 | –
GAA G17C A20C | 0.227 | 0.25 | –
AAA G17A A58T | 2.71 | 0.25 | –
CAA G9C G15C A58C | 3.62 | 0.5 | –
TAA G15C T19G | 3.28 | 0.18 | –
GAA G17A T53A A58T | 2.76 | 0.25 | –
GAA G15C G17C T53A | 2.27 | 0.5 | 0.33
TAA G15T G18C T54A | 6.03 | 0.25 | –
GAA G15C A20T A58C | 5.62 | 0.33 | –
TAA G9A T54A | 3.18 | 0.2 | –
GAA G9T T19A T59C | 4.97 | 0.22 | –
GAA G15A T19C T53A | 6.25 | 0.4 | –
GAA G15A G17C | -0.489 | 0.25 | –
GAA G15A G17T | -0.179 | 0.4 | 0.29
GAA G15T C55T T59G | 4.34 | 0.13 | –
GAA G15T C55T T59C | 3.36 | 0.4 | –
GAA G15T A58T | -0.338 | 0.36 | 0.25
TAA G17C | 0.439 | 0.67 | –

Variant | tRNA Pol-III promoter activity (log2) [1] | tRNA 3' processing efficiency [2] | tRNA 5' processing efficiency [3]
TAA G9T T54A | 4.19 | 0.75 | –
GAA G9A G17T C55G | 2.71 | 0.33 | –
GAA G9C G17T T19G A20T T53C C55A T59G | 2.93 | 0.5 | –
GAA G15A G17C A20G | 3.57 | 0.62 | –
CAA G15A T59G | 4.93 | 0.25 | –
CAA G15A T59A | 4.36 | 0.13 | –
GAA G15A G17T T59G | 2.34 | 0.33 | –
GAA G15A G17T T59A | 4.36 | 0.25 | –
GAA G15A T59G | 1.32 | 0.23 | –
GAA G15A T59C | 0.908 | 0.33 | –
GAA G15A T59A | 2.69 | 0.08 | –
TAA G15C T54A | 3.45 | 0.25 | –
GAA G9A T59G | 1.23 | 0.23 | –
GAA G9A T59A | 1.72 | 0.25 | –
GAA G9A T59C | 0.889 | 0.22 | –
GAA G15C T19C A58T | 5.44 | 0.16 | –
GAA G9A T54A | 0.94 | 0.25 | –
GAA G15C A20T T53A | 2.79 | 0.4 | –
GAA G15A C55G | -0.408 | 0.4 | –

Variant | tRNA Pol-III promoter activity (log2) [1] | tRNA 3' processing efficiency [2] | tRNA 5' processing efficiency [3]
GAA G15A C55T | -0.218 | 0.62 | –
GAA G15C C55T | -0.394 | 0.4 | –
GAA G15T A20G T53A A58T | 3.93 | 0.25 | –
GAA G15T G17A | -0.365 | 0.2 | –
CAA G15C A20T A58T | 7.73 | 0.23 | –
GAA G15A A20T | -0.041 | 0.57 | 0.33
GAA G15T G17T T54A | 6.16 | 0.71 | –
AAA G9T C55G | 3.04 | 0.5 | –
GAA G15A G17A A20T T59G | 3.65 | 0.33 | –
GAA G9A T19G T59C | 6.25 | 0.4 | –
GAA G15C T19A T59A | 3.62 | 0.5 | –
GAA G9T A14T T59G | 4.43 | 0.43 | –
GAA G9C T59C | 0.109 | 0.25 | –
CAA G15T A20T C28T A58G | 5.67 | 0.1 | –
GAA G9A T19C A58C T59C | 7.08 | 0.18 | –
GAA G15C A20C | 0.556 | 0.71 | –
GAA G9T A58G | -0.183 | 0.2 | –
GAA G9T A58C | 0.0512 | 0.5 | –

Shown in CSV form: entries from further up
Variant,tRNA Pol-III promoter activity (log2) [1],tRNA 3' processing efficiency [2],tRNA 5' processing efficiency [3]
TAA G9T T54A,4.19,0.75,–
GAA G9A G17T C55G,2.71,0.33,–
GAA G9C G17T T19G A20T T53C C55A T59G,2.93,0.5,–
GAA G15A G17C A20G,3.57,0.62,–
CAA G15A T59G,4.93,0.25,–
CAA G15A T59A,4.36,0.13,–
GAA G15A G17T T59G,2.34,0.33,–
GAA G15A G17T T59A,4.36,0.25,–
GAA G15A T59G,1.32,0.23,–
GAA G15A T59C,0.908,0.33,–
GAA G15A T59A,2.69,0.08,–
TAA G15C T54A,3.45,0.25,–
